# Experimental data taken from the supplement of paper PMC10373366.
# Structures can show the parent of a compound that is named as a salt. Some of the results follow. Most values come without repeats; read them as rough.
# What was measured:
# A2780 = experiment: cell growth inhibition ratio vs untreated control (CCK8); higher = stronger inhibition of cell viability; conditions: 10 µM; 48 h
# Experimental: (§1)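 Natural product library (Topscience) screened at 10 µM final concentration for 48 h on ovarian cancer A2780 cells and patient-derived ovarian cancer cells (PDC) in 96-well plates; viability read by CCK8 and reported as inhibition ratio (%) relative to untreated control. Single-dose primary screen.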
# [1] = tested on: patient-derived ovarian cancer cells (PDC); experiment: as above; conditions: 10 µM; 48 h
# Experimental: as §1
Compound,cell growth inhibition ratio (A2780) [%],cell growth inhibition ratio [1] [%]
COc1cc2c(cc1O)[C@@H](Cc1ccc(Oc3cc(C[C@H]4c5cc(O)c(OC)cc5CCN4C)ccc3O)cc1)N(C)CC2 [magnolin],13.8,3.71
CN[C@@H]1[C@@H](O[C@H]2O[C@H](CO)[C@@H](N)[C@H](O)[C@H]2O)OC2C[C@@H](N)[C@@H](O[C@H]3[C@H](O)[C@@H](O)[C@H](N)C[C@@H]3N)OC2[C@@H]1O (stereo partly drawn) [Apramycin sulfate],3.88,-1.17
CC1=C(/C=C/C(C)=C/C=C/C(C)=C/C=C/C=C(C)/C=C/C=C(C)/C=C/C2=C(C)C(=O)[C@@H](O)CC2(C)C)C(C)(C)C[C@H](O)C1=O [Astaxanthin],1.95,23
O=C(O)[C@H]1O[C@@H](Oc2cc3oc(-c4ccc(O)cc4)cc(=O)c3c(O)c2O)[C@H](O)[C@@H](O)[C@@H]1O [Breviscapin],14,8.25
COc1cc(-c2oc3cc(O)cc(O)c3c(=O)c2O)ccc1O [Isorhamnetin],16.9,1.45
COc1ccc2cc3[n+](cc2c1OC)CCc1cc2c(cc1-3)OCO2 [Berberine hydrochloride],34.2,-4.17
COc1cc2c(c(OC)c1OC)-c1c(cc(OC)c(OC)c1OC)C[C@](C)(O)[C@@H](C)C2 [Schisandrin],6.19,8.6
CC(=O)OCC(=O)[C@@]1(O)CC[C@H]2[C@@H]3CCC4=CC(=O)C=C[C@]4(C)[C@@]3(Cl)[C@@H](Cl)C[C@@]21C [Dichlorisone Acetate],9.74,4.41
COc1cc(C=O)ccc1OC(C)=O [Acetylvanillin],-3.41,5.85
